This passage reports isolated mass and isolated yield results from US10654896B2 (FUNDACIÓN PARA LA INVESTIGACIÓN MÉDICA APLICADA, priority 2016, dated 2020).

Where a sequence shows no end group, the ends are not given.

A short description of this data set: general procedure: Fmoc solid-phase peptide synthesis; CTC resin; HATU/DIPEA (linear); HBTU/DIEA (cyclic). The note with it: whole synthesis, scale 0.2 mmol.

In turn, RDFQSFRKMWPFFAM came in with an isolated mass of 175 mg and an isolated yield of 3.1%.
